This is one part of the list. Most values lie at the level of the controls, where differences are scatter.
compound: CN[C@@H]1C[C@H]2O[C@@](C)([C@@H]1OC)n1c3ccccc3c3c4c(c5c6ccccc6n2c5c31)C(=O)NC4 [staurosporine]; assay: log2 fold change of tryptic peptide abundance, ligand vs vehicle (limited proteolysis) (log2 ratio); higher = more trypsin-susceptible (destabilized); conditions: ligand concentration: 20 uM; sample: K562 cleared lysate; digestion: 4 min, 22 C (HT-PELSA RT4min, Orbitrap Astral)

By UniProt entry, the sequences of proteins in these tests, tags left out. Where a name states a change or a piece, a line headed by the entry shows the natural chain unless it says otherwise.
UniProt Q8IUZ5: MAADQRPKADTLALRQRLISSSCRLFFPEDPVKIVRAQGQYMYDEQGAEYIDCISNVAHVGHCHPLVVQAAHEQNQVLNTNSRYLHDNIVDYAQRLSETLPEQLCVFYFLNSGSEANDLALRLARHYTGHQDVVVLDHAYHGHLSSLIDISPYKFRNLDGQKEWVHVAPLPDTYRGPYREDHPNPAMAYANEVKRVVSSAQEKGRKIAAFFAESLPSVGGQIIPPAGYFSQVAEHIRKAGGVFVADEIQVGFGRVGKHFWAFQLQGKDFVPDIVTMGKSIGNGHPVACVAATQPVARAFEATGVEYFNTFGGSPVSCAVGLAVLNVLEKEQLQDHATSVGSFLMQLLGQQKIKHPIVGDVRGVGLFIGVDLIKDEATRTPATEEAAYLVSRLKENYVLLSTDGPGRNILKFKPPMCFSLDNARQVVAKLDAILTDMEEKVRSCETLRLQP
UniProt Q8N163, whole entry: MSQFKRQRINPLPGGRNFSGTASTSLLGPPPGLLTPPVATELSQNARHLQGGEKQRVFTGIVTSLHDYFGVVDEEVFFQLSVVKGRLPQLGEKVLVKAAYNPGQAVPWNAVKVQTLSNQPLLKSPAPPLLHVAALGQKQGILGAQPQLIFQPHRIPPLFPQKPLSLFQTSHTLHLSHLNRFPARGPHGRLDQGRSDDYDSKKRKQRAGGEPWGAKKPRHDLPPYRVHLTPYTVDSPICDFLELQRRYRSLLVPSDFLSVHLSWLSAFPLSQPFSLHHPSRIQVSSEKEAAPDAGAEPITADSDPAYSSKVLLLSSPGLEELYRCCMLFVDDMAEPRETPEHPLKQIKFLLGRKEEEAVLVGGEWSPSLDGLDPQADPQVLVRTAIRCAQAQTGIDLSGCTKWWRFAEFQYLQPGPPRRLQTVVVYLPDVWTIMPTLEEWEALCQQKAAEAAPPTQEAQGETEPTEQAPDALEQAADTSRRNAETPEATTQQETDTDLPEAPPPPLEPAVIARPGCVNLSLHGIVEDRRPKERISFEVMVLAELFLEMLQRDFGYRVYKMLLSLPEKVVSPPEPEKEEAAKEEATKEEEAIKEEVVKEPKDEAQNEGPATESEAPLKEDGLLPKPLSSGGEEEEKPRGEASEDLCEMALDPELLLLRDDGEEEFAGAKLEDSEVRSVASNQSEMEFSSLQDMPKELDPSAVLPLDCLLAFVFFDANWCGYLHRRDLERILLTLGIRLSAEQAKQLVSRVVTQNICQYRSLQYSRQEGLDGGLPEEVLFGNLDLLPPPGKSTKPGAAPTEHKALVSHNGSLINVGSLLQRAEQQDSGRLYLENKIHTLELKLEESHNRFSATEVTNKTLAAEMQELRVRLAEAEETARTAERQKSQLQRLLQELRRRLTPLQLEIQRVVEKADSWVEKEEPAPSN
UniProt Q8N184: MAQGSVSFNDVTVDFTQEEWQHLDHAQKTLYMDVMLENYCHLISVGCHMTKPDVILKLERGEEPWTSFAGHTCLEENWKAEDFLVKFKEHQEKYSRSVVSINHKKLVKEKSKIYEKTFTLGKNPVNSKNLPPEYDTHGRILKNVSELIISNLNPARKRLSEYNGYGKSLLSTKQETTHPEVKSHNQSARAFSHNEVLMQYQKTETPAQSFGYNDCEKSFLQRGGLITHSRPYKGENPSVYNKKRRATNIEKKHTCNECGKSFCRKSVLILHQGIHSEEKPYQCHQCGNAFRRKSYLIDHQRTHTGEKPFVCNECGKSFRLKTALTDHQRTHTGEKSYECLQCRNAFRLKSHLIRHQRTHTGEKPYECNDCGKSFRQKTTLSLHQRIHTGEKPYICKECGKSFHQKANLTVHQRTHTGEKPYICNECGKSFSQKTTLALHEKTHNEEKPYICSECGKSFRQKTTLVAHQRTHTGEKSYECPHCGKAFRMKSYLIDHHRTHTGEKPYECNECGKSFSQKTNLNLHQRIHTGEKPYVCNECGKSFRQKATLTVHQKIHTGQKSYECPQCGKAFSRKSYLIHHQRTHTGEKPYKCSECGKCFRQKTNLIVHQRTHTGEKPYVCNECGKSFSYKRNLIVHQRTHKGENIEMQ
UniProt Q8IY22: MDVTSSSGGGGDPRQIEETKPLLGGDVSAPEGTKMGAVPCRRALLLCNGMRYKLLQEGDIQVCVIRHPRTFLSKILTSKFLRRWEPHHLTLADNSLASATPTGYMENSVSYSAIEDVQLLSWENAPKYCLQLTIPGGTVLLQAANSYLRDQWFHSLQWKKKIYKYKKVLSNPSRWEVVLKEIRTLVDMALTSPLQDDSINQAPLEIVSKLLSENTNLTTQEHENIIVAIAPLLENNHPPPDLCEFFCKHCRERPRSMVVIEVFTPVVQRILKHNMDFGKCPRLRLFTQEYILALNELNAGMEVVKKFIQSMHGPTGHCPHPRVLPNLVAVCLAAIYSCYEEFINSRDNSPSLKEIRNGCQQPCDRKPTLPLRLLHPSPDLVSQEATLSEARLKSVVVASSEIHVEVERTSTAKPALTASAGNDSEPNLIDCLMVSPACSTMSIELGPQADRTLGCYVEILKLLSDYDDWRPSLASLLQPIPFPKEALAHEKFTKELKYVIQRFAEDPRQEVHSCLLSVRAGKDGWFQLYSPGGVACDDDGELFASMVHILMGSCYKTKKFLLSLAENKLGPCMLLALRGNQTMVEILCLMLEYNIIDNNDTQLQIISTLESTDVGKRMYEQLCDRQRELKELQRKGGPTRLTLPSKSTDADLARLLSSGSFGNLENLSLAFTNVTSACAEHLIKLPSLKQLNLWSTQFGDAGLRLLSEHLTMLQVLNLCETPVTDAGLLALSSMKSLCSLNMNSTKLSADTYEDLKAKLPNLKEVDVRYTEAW
UniProt Q8IUR0, whole entry: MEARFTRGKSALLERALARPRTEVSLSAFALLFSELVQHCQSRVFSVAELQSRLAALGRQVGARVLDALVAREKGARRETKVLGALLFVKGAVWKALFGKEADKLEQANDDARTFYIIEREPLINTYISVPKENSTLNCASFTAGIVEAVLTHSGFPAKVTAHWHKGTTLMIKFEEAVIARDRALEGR
UniProt Q8IW50: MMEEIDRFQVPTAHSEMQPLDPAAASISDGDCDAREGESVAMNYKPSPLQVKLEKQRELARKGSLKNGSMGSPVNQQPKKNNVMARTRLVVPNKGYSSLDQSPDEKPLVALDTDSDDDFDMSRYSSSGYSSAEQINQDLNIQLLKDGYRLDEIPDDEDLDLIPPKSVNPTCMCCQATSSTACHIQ
UniProt Q86WA8: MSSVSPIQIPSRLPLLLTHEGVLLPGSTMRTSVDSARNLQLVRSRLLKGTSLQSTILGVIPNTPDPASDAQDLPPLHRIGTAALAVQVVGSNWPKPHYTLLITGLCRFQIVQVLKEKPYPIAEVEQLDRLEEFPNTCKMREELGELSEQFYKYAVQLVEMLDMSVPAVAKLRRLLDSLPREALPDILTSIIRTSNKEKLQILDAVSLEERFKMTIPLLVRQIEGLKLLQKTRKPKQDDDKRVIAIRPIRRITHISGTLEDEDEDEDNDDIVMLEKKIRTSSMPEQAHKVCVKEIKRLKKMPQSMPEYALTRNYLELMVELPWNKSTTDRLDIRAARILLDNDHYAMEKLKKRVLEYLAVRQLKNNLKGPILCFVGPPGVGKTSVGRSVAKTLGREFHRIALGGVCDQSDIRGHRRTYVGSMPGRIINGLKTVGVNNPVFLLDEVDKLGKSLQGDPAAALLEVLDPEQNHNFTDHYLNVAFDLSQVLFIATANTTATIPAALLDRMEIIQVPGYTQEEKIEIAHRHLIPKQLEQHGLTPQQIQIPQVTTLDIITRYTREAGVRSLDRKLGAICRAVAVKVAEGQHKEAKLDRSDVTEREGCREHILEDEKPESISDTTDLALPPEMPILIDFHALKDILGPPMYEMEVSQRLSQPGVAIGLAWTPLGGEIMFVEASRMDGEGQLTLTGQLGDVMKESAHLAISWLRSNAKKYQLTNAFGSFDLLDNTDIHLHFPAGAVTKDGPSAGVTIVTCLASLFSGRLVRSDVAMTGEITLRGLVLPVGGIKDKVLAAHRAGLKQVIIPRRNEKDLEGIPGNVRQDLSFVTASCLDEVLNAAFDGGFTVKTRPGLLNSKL
UniProt Q8IXM2, whole entry, looked up: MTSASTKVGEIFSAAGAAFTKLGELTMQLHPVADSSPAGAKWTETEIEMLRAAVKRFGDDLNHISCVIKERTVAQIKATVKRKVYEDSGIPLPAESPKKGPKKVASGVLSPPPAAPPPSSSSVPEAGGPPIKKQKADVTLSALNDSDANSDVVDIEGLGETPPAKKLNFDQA
UniProt Q8IXT5: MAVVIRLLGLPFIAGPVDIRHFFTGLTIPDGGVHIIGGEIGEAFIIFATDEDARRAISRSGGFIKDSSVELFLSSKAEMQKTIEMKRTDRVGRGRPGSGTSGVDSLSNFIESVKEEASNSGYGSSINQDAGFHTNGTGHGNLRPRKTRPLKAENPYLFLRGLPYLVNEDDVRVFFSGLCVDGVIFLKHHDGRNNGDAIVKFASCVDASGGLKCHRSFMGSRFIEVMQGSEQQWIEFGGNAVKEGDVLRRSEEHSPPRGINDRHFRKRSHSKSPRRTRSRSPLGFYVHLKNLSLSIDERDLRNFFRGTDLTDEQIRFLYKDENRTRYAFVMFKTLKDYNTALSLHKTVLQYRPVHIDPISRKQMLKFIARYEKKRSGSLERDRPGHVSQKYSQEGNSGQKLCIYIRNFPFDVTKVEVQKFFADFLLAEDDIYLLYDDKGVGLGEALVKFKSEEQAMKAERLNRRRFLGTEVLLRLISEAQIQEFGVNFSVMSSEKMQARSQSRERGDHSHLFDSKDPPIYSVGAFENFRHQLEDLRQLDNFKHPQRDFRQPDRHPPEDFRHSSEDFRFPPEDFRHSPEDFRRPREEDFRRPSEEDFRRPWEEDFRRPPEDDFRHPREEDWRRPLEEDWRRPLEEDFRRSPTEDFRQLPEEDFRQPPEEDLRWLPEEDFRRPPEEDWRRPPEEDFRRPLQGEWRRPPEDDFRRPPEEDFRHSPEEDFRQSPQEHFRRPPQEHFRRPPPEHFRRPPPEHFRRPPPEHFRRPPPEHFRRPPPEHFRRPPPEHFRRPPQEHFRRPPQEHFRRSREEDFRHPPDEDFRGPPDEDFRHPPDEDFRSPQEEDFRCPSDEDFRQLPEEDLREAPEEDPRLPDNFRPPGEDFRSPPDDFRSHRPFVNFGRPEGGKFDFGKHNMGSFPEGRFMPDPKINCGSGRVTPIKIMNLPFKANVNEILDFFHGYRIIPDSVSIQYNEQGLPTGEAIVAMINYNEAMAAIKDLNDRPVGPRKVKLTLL
UniProt Q8IXX5: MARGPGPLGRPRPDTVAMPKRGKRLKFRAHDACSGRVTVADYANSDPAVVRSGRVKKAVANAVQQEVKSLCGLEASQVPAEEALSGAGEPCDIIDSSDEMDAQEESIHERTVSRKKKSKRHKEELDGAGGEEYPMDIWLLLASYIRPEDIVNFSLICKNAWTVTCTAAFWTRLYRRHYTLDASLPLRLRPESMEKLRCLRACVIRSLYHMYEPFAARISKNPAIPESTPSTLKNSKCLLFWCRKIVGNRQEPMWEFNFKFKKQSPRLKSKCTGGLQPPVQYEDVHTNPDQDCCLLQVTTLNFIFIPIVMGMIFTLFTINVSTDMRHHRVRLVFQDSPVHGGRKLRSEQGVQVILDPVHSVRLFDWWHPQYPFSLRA
UniProt Q8N1G4: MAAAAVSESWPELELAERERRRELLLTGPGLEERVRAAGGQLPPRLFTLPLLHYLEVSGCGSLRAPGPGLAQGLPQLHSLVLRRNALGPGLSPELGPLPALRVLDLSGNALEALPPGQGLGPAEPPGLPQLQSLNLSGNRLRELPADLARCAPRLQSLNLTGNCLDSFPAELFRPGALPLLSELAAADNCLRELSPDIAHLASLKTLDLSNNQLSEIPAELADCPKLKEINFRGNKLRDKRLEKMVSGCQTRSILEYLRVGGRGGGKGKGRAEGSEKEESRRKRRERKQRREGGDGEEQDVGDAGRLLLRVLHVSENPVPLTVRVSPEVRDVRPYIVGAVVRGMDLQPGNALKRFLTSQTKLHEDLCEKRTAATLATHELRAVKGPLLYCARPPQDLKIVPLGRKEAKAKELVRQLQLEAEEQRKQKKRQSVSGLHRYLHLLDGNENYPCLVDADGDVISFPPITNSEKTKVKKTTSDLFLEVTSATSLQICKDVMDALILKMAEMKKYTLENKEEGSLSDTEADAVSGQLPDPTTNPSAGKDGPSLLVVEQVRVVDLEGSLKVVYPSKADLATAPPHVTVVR
UniProt Q8IX90, whole entry: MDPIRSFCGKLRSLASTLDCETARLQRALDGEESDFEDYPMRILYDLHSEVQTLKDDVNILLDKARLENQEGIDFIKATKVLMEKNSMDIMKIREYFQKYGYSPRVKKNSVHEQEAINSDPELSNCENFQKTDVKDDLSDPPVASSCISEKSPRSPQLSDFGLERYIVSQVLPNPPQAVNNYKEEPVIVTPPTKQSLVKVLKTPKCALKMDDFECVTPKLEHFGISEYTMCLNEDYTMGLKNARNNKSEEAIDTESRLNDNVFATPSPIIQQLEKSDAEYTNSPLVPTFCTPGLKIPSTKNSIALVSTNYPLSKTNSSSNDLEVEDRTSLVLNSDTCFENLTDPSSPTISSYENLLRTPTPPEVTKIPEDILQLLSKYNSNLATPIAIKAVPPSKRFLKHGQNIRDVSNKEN

Row | Target | log2 fold change
1 | COMMD2 (peptide sequence: LHLNQNGDHNTK, peptide start residue: 152) (UniProt Q86X83) | -0.257
2 | UniProt Q8N0V3 (peptide sequence: VSLTPDFSACR, peptide start residue: 127) | -0.138
3 | LCORL (peptide sequence: NGSIGPSIVCK, peptide start residue: 184) (UniProt Q8N3X6) | 0.227
4 | ZDHHC14 (peptide sequence: TMHVLGLASQDSLHEDSVR, peptide start residue: 462) (UniProt Q8IZN3) | -0.64
5 | IRF2BP1 (peptide sequence: RQWCYLCDLPK, peptide start residue: 9) (UniProt Q8IU81) | 0.648
6 | UniProt Q8IW45 (peptide sequence: LHALVVGPGLGRDDALLR, peptide start residue: 145) | -1.08
7 | ASPM (peptide sequence: VFQHNELKK, peptide start residue: 2596) (UniProt Q8IZT6) | 1.2
8 | MISP (peptide sequence: ERESVLR, peptide start residue: 310) (UniProt Q8IVT2) | -0.0888
9 | UniProt Q8IUZ5 (peptide sequence: FRNLDGQK, peptide start residue: 155) | -0.182
10 | PHF13 (peptide sequence: DSDAPGKEGYR, peptide start residue: 126) (UniProt Q86YI8) | 0.394
11 | UniProt Q8N163 (peptide sequence: ETPEHPLK, peptide start residue: 337) | 0.508
12 | RBM45 (peptide sequence: ERFSPFGDIQDIWVVR, peptide start residue: 43) (UniProt Q8IUH3) | -0.125
13 | UniProt Q8N184 (peptide sequence: AFSHNEVLMQYQK, peptide start residue: 190) | 0.18
14 | CHERP (peptide sequence: LPPPMPPSER, peptide start residue: 676) (UniProt Q8IWX8) | 0.184
15 | SFR1 (peptide sequence: SKNDLSQLQLLIKK, peptide start residue: 181) (UniProt Q86XK3) | 0.867
16 | CMIP (peptide sequence: LSADTYEDLK, peptide start residue: 747) (UniProt Q8IY22) | -0.173
17 | TRAPPC5 (peptide sequence: VTAHWHK, peptide start residue: 160) (UniProt Q8IUR0) | 0.26
18 | CNPY4 (peptide sequence: SREVLELGQVLDTGKR, peptide start residue: 58) (UniProt Q8N129) | 0.108
19 | FAM219A (peptide sequence: EGESVAMNYKPSPLQVK, peptide start residue: 36) (UniProt Q8IW50) | 0.178
20 | LONP2 (peptide sequence: MTIPLLVR, peptide start residue: 213) (UniProt Q86WA8) | 0.0287
21 | PHC2 (peptide sequence: DLVGMGHHFLPSEPTK, peptide start residue: 778) (UniProt Q8IXK0) | 0.115
22 | UniProt Q8IXM2 (peptide sequence: KVYEDSGIPLPAESPK, peptide start residue: 83) | -0.436
23 | RBM12B (peptide sequence: YAFVMFK, peptide start residue: 326) (UniProt Q8IXT5) | -0.592
24 | CACUL1 (peptide sequence: KITNHLER, peptide start residue: 186) (UniProt Q86Y37) | -0.729
25 | FOXP4 (peptide sequence: QFLLQQASGLSSPGNNDSK, peptide start residue: 75) (UniProt Q8IVH2) | -0.57
26 | UniProt Q8N371 (peptide sequence: AGDTHCPAEPLAR, peptide start residue: 2) | -0.578
27 | UniProt Q8IXX5 (peptide sequence: HYTLDASLPLR, peptide start residue: 177) | -0.201
28 | LRRC47 (peptide sequence: VLHVSENPVPLTVRVSPEVR, peptide start residue: 311) (UniProt Q8N1G4) | 0.511
29 | UniProt Q8IX90 (peptide sequence: TDVKDDLSDPPVASSCISEKSPR, peptide start residue: 132) | 0.478

Copied from the list.
log2 fold change, UniProt Q8IUZ5 (peptide sequence: FRNLDGQK, peptide start residue: 155) is entered as -0.182
log2 fold change, UniProt Q8N0V3 (peptide sequence: VSLTPDFSACR, peptide start residue: 127) is entered as -0.138

From the supplement of paper PMC12819154, “High-throughput peptide-centric local stability assay extends protein–ligand identification to membrane proteins, tissues and bacteria” (Nature Structural & Molecular Biology, 2025)
